Source: paper PMC6832239 (Molecules, 2019)
HELM strings list residues between dots; [ac] is acetyl, [am] amide, other brackets name non-standard units.

Experiment: general procedure: Fmoc solid-phase peptide synthesis; 2-chlorotrityl chloride resin (acids); Rink amide resin (amides); TBTU/HOBt
Settings: whole synthesis

**Q.** For H-KTTKS-OH, which isolated yield is on record?
**A.** 57%

**Q.** With H-RTTRS-OH as the substance, how does the isolated yield read?
**A.** 68%

**Q.** Which isolated yield does the source give for H-KTTKS-NH2 here?
**A.** 62%

**Q.** For “PEPTIDE1{[XCaph438eea].K.T.T.R.S.[am]}$$$$V2.0”, which isolated yield is on record?
**A.** 61%

**Q.** Which isolated yield does the source give for “PEPTIDE1{[XCaph438eea].R.T.T.R.S}$$$$V2.0” here?
**A.** 65%

**Q.** For Ac-RTTKS-NH2, which isolated yield is on record?
**A.** 54%

**Q.** For “PEPTIDE1{[XCaph438eea].R.T.T.R.S.[am]}$$$$V2.0”, which isolated yield is on record?
**A.** 62%

**Q.** For “PEPTIDE1{[XCaph438eea].K.T.T.K.S.[am]}$$$$V2.0”, which isolated yield is on record?
**A.** 58%

**Q.** With “PEPTIDE1{[XCaphdc5e81].K.T.T.K.S.[am]}$$$$V2.0” as the substance, how does the isolated yield read?
**A.** 42%

**Q.** For “PEPTIDE1{[XCaphdc5e81].K.T.T.R.S.[am]}$$$$V2.0”, which isolated yield is on record?
**A.** 54%

**Q.** For H-RTTKS-NH2, which isolated yield is on record?
**A.** 58%

**Q.** For “PEPTIDE1{[XCaphdc5e81].K.T.T.R.S}$$$$V2.0”, which isolated yield is on record?
**A.** 52%

**Q.** With “PEPTIDE1{[XCaphdc5e81].R.T.T.K.S}$$$$V2.0” as the substance, how does the isolated yield read?
**A.** 52%

**Q.** For H-KTTRS-OH, which isolated yield is on record?
**A.** 58%

**Q.** Which isolated yield does the source give for “PEPTIDE1{[XCaphdc5e81].R.T.T.K.S.[am]}$$$$V2.0” here?
**A.** 51%

**Q.** For Ac-KTTRS-OH, which isolated yield is on record?
**A.** 55%

**Q.** Which isolated yield does the source give for Pal-Arg-Thr-Thr-Lys-Ser- NH2 here?
**A.** 59%

**Q.** Which isolated yield does the source give for “PEPTIDE1{[XCaphdc5e81].R.T.T.R.S}$$$$V2.0” here?
**A.** 61%

**Q.** Which isolated yield does the source give for “PEPTIDE1{[XCaph438eea].R.T.T.K.S}$$$$V2.0” here?
**A.** 58%

**Q.** With Ac-RTTRS-OH as the substance, how does the isolated yield read?
**A.** 63%

**Q.** Which isolated yield does the source give for Ac-KTTKS-OH here?
**A.** 55%

**Q.** Which isolated yield does the source give for Ac-RTTKS-OH here?
**A.** 58%

**Q.** For Ac-RTTRS-NH2, which isolated yield is on record?
**A.** 66%

**Q.** Which isolated yield does the source give for Ac-KTTRS-NH2 here?
**A.** 65%

**Q.** With “PEPTIDE1{[XCaph438eea].K.T.T.R.S}$$$$V2.0” as the substance, how does the isolated yield read?
**A.** 56%

**Q.** For “PEPTIDE1{[XCaphdc5e81].K.T.T.K.S}$$$$V2.0”, which isolated yield is on record?
**A.** 47%

**Q.** For H-RTTRS-NH2, which isolated yield is on record?
**A.** 65%

**Q.** For “PEPTIDE1{[XCaphdc5e81].R.T.T.R.S.[am]}$$$$V2.0”, which isolated yield is on record?
**A.** 53%

**Q.** For H-RTTKS-OH, which isolated yield is on record?
**A.** 59%

**Q.** Which isolated yield does the source give for “PEPTIDE1{[XCaph438eea].K.T.T.K.S}$$$$V2.0” here?
**A.** 56%

**Q.** For Ac-KTTKS-NH2, which isolated yield is on record?
**A.** 58%

**Q.** Which isolated yield does the source give for H-KTTRS-NH2 here?
**A.** 63%
